In patent US20080032340A1, “Peptide motifs for binding avidin or neutravidin” (University of Arizona, priority 2006, published 2008):
At least one peptide structure holds a part that was inferred or is arguable (an end, a ring closure or a residue). For at least one compound, name, drawing or mass did not settle the structure. Where a SMILES comes first, the peptide text is derived from it. Bridges are numbered along the chain shown (N, C = ends).

Protein sequences, listed by entry. Tags and fused reporters are not part of them. Residues count along the entry.
UniProt P02701, 25-152: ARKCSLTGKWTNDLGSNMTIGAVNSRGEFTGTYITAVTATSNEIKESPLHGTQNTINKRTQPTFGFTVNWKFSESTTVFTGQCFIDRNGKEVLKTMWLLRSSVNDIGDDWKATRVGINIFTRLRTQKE

Tests used:
NeutrAvidin [1] = molecular target: T1, NeutrAvidin (Gallus gallus, UniProt P02701); experiment: Phage-displayed cyclic peptide selection against NeutrAvidin (clone sequencing); format: binding; settings: for % of clones, Round 3: round 3, 15 clones sequenced; for % of clones, Round 4: round 4, 26 clones sequenced; for % of clones, Round 5: round 5, 40 clones sequenced
T1 construct: purchased Pierce
Protocol: XL1-Blue E. coli containing the phagemid library vector were grown from glycerol stocks in 5 mL of 2×YT media with glucose and ampicillin selection at 37° C. Titered M13KO7 helper phage (5×10^9 pfu) was added when the culture reached an OD600 of 0.8 and was incubated for 1 hour. The culture was then pelleted via centrifugation, the cells were resuspended in 2×YT with ampicillin and kanamycin, and allowed to grow overnight. After 10 hours of incubation, the culture was again pelleted by centrifugation and the supernatant was filtered through a 0.45 μm sterile filter to remove trace E. coli. The phage was isolated from the supernatant by PEG (polyethylene glycol) precipitation. 1 mL of 20% PEG in 2.5 M NaCl was added to the 5 mL of filtered media. The resulting precipitate was isolated by centrifugation at 18,000 rcf. The phage pellet was resuspended in 5 mL of Tris Buffer A (20 mM Tris-HCl, 150 mM NaCl, and 0.05% Tween 20 at pH=7.4). The phage was then re-precipitated with 1 mL PEG/NaCl, isolated via centrifugation, and resuspended in 1 mL of Tris Buffer A.
100 μL of the phage solution was then exposed to a well of a NeutrAvidin coated polystyrene plate (Pierce) that had been previously rinsed with Tris Buffer A. After 1 hour of incubation, the phage solution was discarded and the well was washed six times for 10 minutes each with 200 μL of Tris Buffer A. Bound phage was eluted with 200 μL of 0.2 M glycine (pH=2.0) by incubation for 10 minutes, followed by neutralization with 40 μL of 2 M Tris base. The input phage and eluted phage were then used to infect two 5 mL tetracycline-selected cultures of XL1 Blue E. coli (OD600=0.8). After 1 hour, the cells were pelleted and resuspended in 5 mL of 2×YT with ampicillin and glucose. To estimate the number of input and output phages, 20 μL of ten-fold serial dilutions of each culture was plated on LB agar plates that contained ampicillin. The rest of the output culture was grown overnight, at which point 1 mL was used to start the next round of selection, while the other 4 mL were stored in glycerol (20%) at −78° C. DNA from colonies from the LB agar plates was isolated for DNA sequencing.
Phage display selection and synthesis of NeutrAvidin binding peptides. While performing a selection against a separate target, an interesting NeutrAvidin-binding peptide epitope was discovered in the control selections. The rapid and complete convergence to this novel motif encouraged us to repeat the selection against NeutrAvidin and characterize the selected peptides more fully. The selection utilized a six residue cyclic peptide library constrained with a disulfide bond from two conserved cysteines. The library size was chosen to enable complete coverage (1.1×10^9 unique nucleotide sequences encoding for 6.4×10^7 unique peptides) and a cyclic architecture was chosen because of the increase in affinity that cyclization provides relative to linear peptides (Giebel, et al., Screening of cyclic peptide phage libraries identifies ligands that bind streptavidin with high affinities. Biochemistry 1995; 34 (47): 15430-5; Fung et al., Design of cyclic and other templates for potent and selective peptide alpha-MSH analogues. Curr Opin Chem Biol 2005; 9 (4):352-8). The library was expressed as a fusion to the gene III protein of M13 filamentous bacteriophage, C-terminal to the periplasmic signaling sequence and N-terminal to a peptide linker and the rest of the gene III protein (see supplementary material). Phage display selection rounds were carried out against NeutrAvidin coated polystyrene plates without further preparation. After only three rounds of selection, a striking motif was discovered (Table 1). The motif is of the general form DXaAXbPXc (SEQ ID NO: 1), where Xa=R or L; Xb=S or T; and Xc=Y or W. After two more rounds, the selection slightly favored the peptide DRASPY (SEQ ID NO: 6). The consensus sequences all have Asp in the first position, Ala in the third position, and Pro in the fifth position. […]

NeutrAvidin [2] = molecular target: T1, NeutrAvidin; experiment: HABA-competitive binding determination, HABA-NeutrAvidin complex; settings: cyclic peptides
Protocol: (§1) After 60 minutes, the absorbance of the complex was monitored at 500 nm. To calculate the IC50s of the selected peptides, the average of three separate trials were fitted to the Hill equation, [formula] where [L] is the total ligand concentration, [L]F is free ligand concentration, [L]B is bound ligand concentration and nH is the Hill coefficient (Hill, The possible effects of the aggregation of the molecules of haemoglobin on its dissociation curves. J Physiol 1910; 40:4-8). […] Best fit equations were calculated using KaleidaGraph (Synergy Software).

avidin = avidin (Gallus gallus, UniProt P02701); experiment: HABA-competitive binding determination, avidin-HABA complex; design: purchased Pierce; species or system chicken; settings: cyclic peptides
Protocol: as §1

Compound | % of clones, Round 3 (NeutrAvidin [1]) | % of clones, Round 4 (NeutrAvidin [1]) | % of clones, Round 5 (NeutrAvidin [1]) | binding to NeutrAvidin (NeutrAvidin [2]) | binding to avidin (avidin)
CC(C)C[C@@H]1NC(=O)[C@H](CC(=O)O)NC(=O)[C@@H](N)CSSC[C@@H](C(=O)NCC(N)=O)NC(=O)[C@H](Cc2c[nH]c3ccccc23)NC(=O)[C@@H]2CCCN2C(=O)[C@H](CO)NC(=O)[C@H](C)NC1=O [DLASPW] (H-CDLASPWCG-NH2; disulfide 1-8; N-terminus assumed) | 27% | 12% | 18% |  | 
C[C@@H]1NC(=O)[C@H](CCCNC(=N)N)NC(=O)[C@H](CC(=O)O)NC(=O)[C@@H](N)CSSC[C@@H](C(=O)NCC(N)=O)NC(=O)[C@H](Cc2ccc(O)cc2)NC(=O)[C@@H]2CCCN2C(=O)[C@H]([C@@H](C)O)NC1=O [DRATPY] (H-CDRATPYCG-NH2; disulfide 1-8) | 20% | 27% | 15% | low μM dissociation constants | low μM dissociation constants
C[C@@H]1NC(=O)[C@H](CCCNC(=N)N)NC(=O)[C@H](CC(=O)O)NC(=O)[C@@H](N)CSSC[C@@H](C(=O)NCC(N)=O)NC(=O)[C@H](Cc2ccc(O)cc2)NC(=O)[C@@H]2CCCN2C(=O)[C@H](CO)NC1=O [DRASPY] (H-CDRASPYCG-NH2; disulfide 1-8) | 27% | 46% | 49% | low μM dissociation constants | low μM dissociation constants
